Test results published in patent US20240041842A1, “PHARMACEUTICAL COMPOSITION FOR INHIBITING CANCER METASTASIS” (INDUSTRY-ACADEMIC COOPERATION FOUNDATION, YONSEI UNIVERSITY, priority 2021, published 2024).
For at least one compound, name, drawing or mass did not settle the structure.

Assays:
Type in all cases: cell-based, human
HBEC-K cell line = assay: Matrigel invasion assay, HBEC-K cell line; settings: autophagy activated by rapamycin
TFEB (CLEAR network) = assay: CLEAR motif-driven luciferase reporter assay; settings: HBEC-KL; 2 uM rapamycin, 5 hours
Experimental: To compare the TFEB reporter activity with other cell lines (HBEC30KT, HBEC-K, and HBEC-KL), the pGL4.70 5× CLEAR Rluc and pSt4.14 Fluc vectors were transiently co-transfected and normalized luciferase activity was measured in Dual-Measured by Luciferase® Reporter Assay System (Promega, E1910),

Intracellular citrate = assay: Citrate assay; settings: HBEC-K cells; 2 uM rapamycin
Experimental: Intracellular citrate levels were calculated in the pmol range using a citrate assay kit (Biovision, K655). After sonication, proteins were removed from the supernatant using a 10 kDa molecular weight cutoff spin column, followed by incubation at room temperature for 30 minutes with 50 μl citrate reaction mixture comprising enzyme mixture, developer and citrate probe. Citrate content was measured by reading OD 570 nm with an Envision Multimode Plate Reader (PerkinElmer 2105-0010, Waltham, MA, USA). After correcting the background in all readings, the value of each sample was determined and normalized to the protein concentration of each sample.

Intracellular acetyl-CoA = assay: Acetyl-CoA measurement; settings: HBEC-K cells; 2 uM rapamycin
Experimental: Intracellular acetyl-CoA levels were calculated in the pmol range using the PicoProbe Acetyl-CoA Assay Kit (Biovision, K317). […] After correcting the background in all readings, the value of each sample was determined and normalized to the protein concentration of each sample.

## CO[C@H]1C[C@@H]2CC[C@@H](C)[C@@](O)(O2)C(=O)C(=O)N2CCCC[C@H]2C(=O)O[C@H]([C@H](C)C[C@@H]2CC[C@@H](O)[C@H](OC)C2)CC(=O)[C@H](C)/C=C(\C)[C@@H](O)[C@@H](OC)C(=O)[C@H](C)C[C@H](C)/C=C/C=C/C=C/1C [rapamycin]
HBEC-K cell line
  permeability (Matrigel invasion): increased
TFEB (CLEAR network)
  CLEAR activity under ACLY genetic knockdown: could not restore
Intracellular citrate
  citrate levels: increased
Intracellular acetyl-CoA
  acetyl-CoA levels: increased
